Some of these results come from one statement about several compounds together.
Tested on: A. succinogenes 130Z cells harboring pLGZ921 and pLGZ922
Experiment: Growth of plasmid-harboring A. succinogenes 130Z on TS-agar plates with tetracycline or chloramphenicol
Format: cell-based, Actinobacillus succinogenes
Source text: Expression of Tet^R and Cm^R in A. succinogenes. We need several markers to conveniently engineer A. succinogenes. One can be used to label a gene deletion, while another one can be used to select for the maintenance of a recombinant gene on a plasmid replicon. To determine whether, once expressed, Cm^R and Tet^R could be used as selective markers in A. succinogenes, the Tn9 Cm^R and Tn10 Tet^R genes were cloned into pLGZ920 under control of the A. succinogenes pckA promoter, yielding plasmids pLGZ921 and pLGZ922, respectively. After electroporation, A. succinogenes 130Z cells harboring pLGZ921 and pLGZ922 were spread on TS-agar (30 g/l TS, 10 g/l glucose) plates containing variable amounts of tetracycline and chloramphenicol (FIG. 9). Strains […] plated on chloramphenicol plates and […] plated on tetracycline plates were used as the negative controls. […] In contrast, strain […] grew on plates containing up to 5.0 μg/ml tetracycline. Chloramphenicol-sensitive 130Z(pLGZ921) strain grew on plates containing up to 0.4 μg/ml […], but not on plates containing higher chloramphenicol concentrations. Strain […] grew on plates containing up to 5.0 μg/ml chloramphenicol.

`O=C(N[C@H](CO)[C@H](O)c1ccc([N+](=O)[O-])cc1)C(Cl)Cl` [chloramphenicol] was tested, and the “antibiotic concentration up to which strain 130Z(pLGZ922) grew on plates” value was “up to 5.0 μg/ml”.

Source: patent publication US7195918B2 (priority 2003, dated 2007)
